Data reported in publication PMC7346168.

Biological target: T1, 2-CysPRXA C54D (pseudo-hyperoxidized variant) (Arabidopsis) (UniProt Q96291)
T1 sequence: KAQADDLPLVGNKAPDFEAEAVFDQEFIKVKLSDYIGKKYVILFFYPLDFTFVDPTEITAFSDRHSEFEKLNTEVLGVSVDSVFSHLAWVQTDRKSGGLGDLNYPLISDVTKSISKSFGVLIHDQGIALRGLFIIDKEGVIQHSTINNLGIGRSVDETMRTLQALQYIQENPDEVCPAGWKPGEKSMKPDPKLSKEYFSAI
Test: affinity purification with mass spectrometry; same pull down as a1 and a2, hits compiled from the results with all variants, redox and elution conditions; the redox condition is not told for the hit; only the target purified

B1: α-GLUCAN WATER DIKINASE 1 (protein, UniProt Q9SAC6 76-1399)
chain: VLAMDPQAAEKFSLDGNIDLLVEVTSTTVREVNIQIAYTSDTLFLHWGAILDNKENWVLPSRSPDRTQNFKNSALRTPFVKSGGNSHLKLEIDDPAIHAIEFLIFDESRNKWYKNNGQNFHINLPTERNVKQNVSVPEDLVQIQAYLRWERKGKQMYNPEKEKEEYEAARTELREEMMRGASVEDLRAKLLKKDNSNESPKSNGTSSSGREEKKKVSKQPERKKNYNTDKIQRKGRDLTKLIYKHVADFVEPESKSSSEPRSLTTLEIYAKAKEEQETTPVFSKKTFKLEGSAILVFVTKLSGKTKIHVATDFKEPVTLHWALSQKGGEWLDPPSDILPPNSLPVRGAVDTKLTITSTDLPSPVQTFELEIEGDSYKGMPFVLNAGERWIKNNDSDFYVDFAKEEKHVQKDYGDGKGTAKHLLDKIADLESEAQKSFMHRFNIAADLVDEAKSAGQLGFAGILVWMRFMATRQLVWNKNYNVKPREISKAQDRLTDLLQDVYASYPEYRELLRMIMSTVGRGGEGDVGQRIRDEILVIQRKNDCKGGIMEEWHQKLHNNTSPDDVVICQALMDYIKSDFDLSVYWKTLNDNGITKERLLSYDRAIHSEPNFRGEQKDGLLRDLGHYMRTLKAVHSGADLESAIQNCMGYQDDGEGFMVGVQINPVSGLPSGYPDLLRFVLEHVEEKNVEPLLEGLLEARQELRPLLLKSHDRLKDLLFLDLALDSTVRTAIERGYEQLNDAGPEKIMYFISLVLENLALSSDDNEDLIYCLKGWQFALDMCKSKKDHWALYAKSVLDRSRLALASKAERYLEILQPSAEYLGSCLGVDQSAVSIFTEEIIRAGSAAALSSLVNRLDPVLRKTANLGSWQVISPVEVVGYVIVVDELLTVQNKTYDRPTIIVANRVRGEEEIPDGAVAVLTPDMPDVLSHVSVRARNGKICFATCFDSGILSDLQGKDGKLLSLQPTSADVVYKEVNDSELSSPSSDNLEDAPPSISLVKKQFAGRYAISSEEFTSDLVGAKSRNIGYLKGKVPSWVGIPTSVALPFGVFEKVISEKANQAVNDKLLVLKKTLDEGDQGALKEIRQTLLGLVAPPELVEELKSTMKSSDMPWPGDEGEQRWEQAWAAIKKVWASKWNERAYFSTRKVKLDHDYLCMAVLVQEVINADYAFVIHTTNPSSGDSSEIYAEVVKGLGETLVGAYPGRSLSFICKKNNLDSPLVLGYPSKPIGLFIRRSIIFRSDSNGEDLEGYAGAGLYDSVPMDEEDQVVLDYTTDPLITDLSFQKKVLSDIARAGDAIEKLYGTAQDIEGVIRDGKLYVVQTRPQV
With B1 the binding was “binds”.

Results are given in words; binding and its absence hold for the method and conditions named. In cells and extracts the contact can be indirect. A yes stands for co-enrichment or nearness to the bait. Other partners may have been found. Sequences can lack the tags named with a protein.
